Source: patent US20200018743A1, “MINI-CANCERS UTILIZATION FOR PERSONALIZED CANCER DRUG REGIMENS” (THE JOHNS HOPKINS UNIVERSITY, priority 2017, published 2020)
For part of these data: At least one compound was matched to its structure with a doubt left. Some results were stated once for a whole list of compounds, not compound by compound.

Assays:
Format in all cases: cell-based, human
[1] = system: CCA8 sister CCA PDO lines; assay: 129-drug panel on the 6 sister PDO lines of CCA8
Description: (§1) This intra tumor functional heterogeneity was investigated by calculating the standard deviation of a drug response across all PDO lines established from a patient tumor. […] The inventors chose one of the cancer specimens (CCA8) for further in-depth studies of intra-tumor functional heterogeneity and the identification of its drivers. […] To visualize this phenomenon, we calculated the standard deviation of each drug effect across the 6 PDOs (FIG. 20D). […] To this end, we first chose drugs that induced 30% or less viability in at least one of the 6 sister CCA PDO lines when tested at a 10 uM concentration. […] Of note, there is no known genetic alteration (mutational or otherwise) to predict the response of human cancers to proteasome inhibitors.
(§2) PDOs were plated in 96-well or 384-well plates and cultured for 3 days. Next, media was changed with drug-containing media. The initial screen was performed at a concentration of 10 uM. After 4 days, viability was determined in each well with Cell TiterGlo (Cat #: G7572, Promega, Wis.) following the manufacturer's instruction. […] was measured with a plate reader (Perkin-Elmer EnVision Plate Reader). Drugs that induced less than 50% viability were chosen for future studies.

[2] = system: HCC26 PDO lines; assay: 129-drug panel on HCC26 PDO lines
[3] = system: HCC25 PDO lines; assay: 129-drug panel on HCC25 PDO lines
[4] = system: 27 liver cancer PDO lines; assay: High throughput screening of NCI VII 129-drug panel on 27 liver cancer PDO lines (CellTiter-Glo); details: for median survival across all 27 liver cancer PDO lines: 10 uM, percent viability 4 days after treatment; for number of PDO lines where ineffective: of 27 liver cancer PDO lines
Description: To pick out inter patient divergent drugs (i.e., drugs with discordant effect across the 5 patients), we calculated the mean cell viability per patient cancer specimen by averaging the effect of the drugs across all PDO lines established for the same patient. This mean cell viability per patient is a measure of how the tumor, as a whole, responds to a certain drug. Next, we calculated the standard deviation of the 5 means (one per patient) and ordered the data in decreasing order of the standard deviation. […] To further visualize the inter-patient divergence of drug effects, the inventors constructed a heat map of drug responses per each patient (utilizing the mean cell viability over all clones from each patient, FIG. 20B).
as §1
Take out Matrigel from −20 C and keep at 4 C overnight. Also keep pipette tips at 4 C overnight. Count cells. Mix cells with Matrigel so that you have 200 cells per uL of Matrigel. […] Plate 2 rows, then stop. Wait till the Matrigel is solid. Then add 100 uL of growth passage media. Then continue till all plate is filled up with cells. Place plate into incubator. Take picture with white light. After 4 days replace the media with media containing drugs (90 uL media+10 uL drug work solution). Use a multi-pipette.
as §2

SMILES | efficacy in patient specimen ([1]; CCA8) | killing effect / activity across the 6 PDO lines ([1]; CCA8, 10 uM) | efficacy in patient specimen [2] | efficacy in patient specimen [3] | median survival across all 27 liver cancer PDO lines [4] | number of PDO lines where ineffective [4]
Cc1nc(Nc2ncc(C(=O)Nc3c(C)cccc3Cl)s2)cc(N2CCN(CCO)CC2)n1 [Dasatinib] | not at all | worked well in 3/6, had moderate activity in 2/6 and poor activity in 1/6 PDO lines | work well | not at all |  | 
COc1cccc2c1C(=O)c1c(O)c3c(c(O)c1C2=O)C[C@@](O)(C(=O)CO)C[C@@H]3O[C@H]1C[C@H](N)[C@H](O)[C@H](C)O1 [Doxorubicin] |  |  |  |  | less than 10% | at least 1
CO[C@@]12[C@H](COC(N)=O)C3=C(C(=O)C(C)=C(N)C3=O)N1C[C@@H]1N[C@@H]12 [Mitomycin, mitomycin] |  |  |  |  | less than 10% | at least 1
COC(=O)C[C@](O)(CCCC(C)(C)O)C(=O)O[C@@H]1C(OC)=C[C@]23CCCN2CCc2cc4c(cc2[C@H]13)OCO4 [Omacetaxine, omacetaxine] |  |  |  |  |  | at least 1
